The source of these data is paper PMC6792016.

For series [1], the target named is p53EE (R178E + p53EE/EE MEF nuclear extract) (Mus musculus (129Sv)) (UniProt P02340). In words: EMSA. Particulars: anti-p53 Pab421 in the binding mix; 20 mM HEPES pH 7.8, 0.5 mM EDTA, 6 mM MgCl2, 60 mM KCl, 0.008% NP-40, 1 mM DTT, 100 ng Pab421, 120 ng salmon sperm DNA, 1 ul glycerol in 20 ul; 30 min room temperature; protein in an extract; label: 32P. On the technique in general: A gel shift assay detects complexes by their altered migration in electrophoresis.

The test system of series [2] is p53 WT (IVT). As to the kind of experiment: EMSA. Particulars: anti-p53 Pab421 in the binding mix; 20 mM HEPES pH 7.8, 0.5 mM EDTA, 6 mM MgCl2, 60 mM KCl, 0.008% NP-40, 1 mM DTT, 100 ng Pab421, 120 ng salmon sperm DNA, 1 ul glycerol in 20 ul; 30 min room temperature; protein translated in vitro; label: 32P.
The target of series [3] is p53 WT (p53+/+ MEF nuclear extract) (Mus musculus (129Sv knock-in background)) (UniProt P02340). As to the kind of experiment: EMSA supershift. The conditions noted are these: anti-p53 Pab421 in the binding mix, FL-393 supershift; 20 mM HEPES pH 7.8, 0.5 mM EDTA, 6 mM MgCl2, 60 mM KCl, 0.008% NP-40, 1 mM DTT, 100 ng Pab421, 120 ng salmon sperm DNA, 1 ul glycerol in 20 ul; 30 min room temperature; protein in an extract; label: 32P.

Construct, isoform or probe ends are uncertain for at least one entry. For part of these data: Results from cells or extracts need not show a direct contact. For part of these data: No signal at the amounts used counts as a negative. For part of these data: At least one verdict was read from the data and is not stated in words by the source.

“GGGTAGACATGCCTAGACATGCCTAAGCTCCC (double strand) [p53 RE (consensus-like)]”: the binding result in series [1] is on record as “no binding”; in series [2], “binds”; in series [3] it was “binds”.
